The list shows a part of the results, in another mix than the full data.
compound: COC(=O)C#Cc1ccccc1 [methyl 3-phenylpropiolate]; assay: log2 ratio of iodoacetamide-alkyne labeling of the cysteine site, DMSO over compound (competition); higher = stronger covalent engagement of the cysteine by the compound, active = 1 or more; settings: 500 µM; treatment time 1 h; system: HEK293T cell lysate
Outline: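 After 1 h at ambient temperature with vehicle or electrophile (500 µM), HEK293T lysate (2 mg/mL) was labelled for 1 h with iodoacetamide alkyne and clicked to sCIP-TMT reagents. Pooled samples were trypsin-digested overnight at 37 °C, streptavidin-enriched, acid-eluted and analysed by Orbitrap Eclipse LC-MS/MS with FAIMS, then quantified in FragPipe over three replicates with duplicate channels. A cysteine's log2 competition ratio is its mean control-channel over mean compound-channel reporter intensity. Cysteines quantified in only one replicate were not included.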

Amino acid sequences for entries named in this document (tags omitted). A change or cut given only in a name is not applied to a line headed by its entry.
UniProt P62633: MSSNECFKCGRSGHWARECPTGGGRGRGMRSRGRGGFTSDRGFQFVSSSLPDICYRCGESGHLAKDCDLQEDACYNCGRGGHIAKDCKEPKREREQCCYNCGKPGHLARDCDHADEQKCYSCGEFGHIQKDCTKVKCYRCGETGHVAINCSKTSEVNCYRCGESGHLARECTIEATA
UniProt Q00610: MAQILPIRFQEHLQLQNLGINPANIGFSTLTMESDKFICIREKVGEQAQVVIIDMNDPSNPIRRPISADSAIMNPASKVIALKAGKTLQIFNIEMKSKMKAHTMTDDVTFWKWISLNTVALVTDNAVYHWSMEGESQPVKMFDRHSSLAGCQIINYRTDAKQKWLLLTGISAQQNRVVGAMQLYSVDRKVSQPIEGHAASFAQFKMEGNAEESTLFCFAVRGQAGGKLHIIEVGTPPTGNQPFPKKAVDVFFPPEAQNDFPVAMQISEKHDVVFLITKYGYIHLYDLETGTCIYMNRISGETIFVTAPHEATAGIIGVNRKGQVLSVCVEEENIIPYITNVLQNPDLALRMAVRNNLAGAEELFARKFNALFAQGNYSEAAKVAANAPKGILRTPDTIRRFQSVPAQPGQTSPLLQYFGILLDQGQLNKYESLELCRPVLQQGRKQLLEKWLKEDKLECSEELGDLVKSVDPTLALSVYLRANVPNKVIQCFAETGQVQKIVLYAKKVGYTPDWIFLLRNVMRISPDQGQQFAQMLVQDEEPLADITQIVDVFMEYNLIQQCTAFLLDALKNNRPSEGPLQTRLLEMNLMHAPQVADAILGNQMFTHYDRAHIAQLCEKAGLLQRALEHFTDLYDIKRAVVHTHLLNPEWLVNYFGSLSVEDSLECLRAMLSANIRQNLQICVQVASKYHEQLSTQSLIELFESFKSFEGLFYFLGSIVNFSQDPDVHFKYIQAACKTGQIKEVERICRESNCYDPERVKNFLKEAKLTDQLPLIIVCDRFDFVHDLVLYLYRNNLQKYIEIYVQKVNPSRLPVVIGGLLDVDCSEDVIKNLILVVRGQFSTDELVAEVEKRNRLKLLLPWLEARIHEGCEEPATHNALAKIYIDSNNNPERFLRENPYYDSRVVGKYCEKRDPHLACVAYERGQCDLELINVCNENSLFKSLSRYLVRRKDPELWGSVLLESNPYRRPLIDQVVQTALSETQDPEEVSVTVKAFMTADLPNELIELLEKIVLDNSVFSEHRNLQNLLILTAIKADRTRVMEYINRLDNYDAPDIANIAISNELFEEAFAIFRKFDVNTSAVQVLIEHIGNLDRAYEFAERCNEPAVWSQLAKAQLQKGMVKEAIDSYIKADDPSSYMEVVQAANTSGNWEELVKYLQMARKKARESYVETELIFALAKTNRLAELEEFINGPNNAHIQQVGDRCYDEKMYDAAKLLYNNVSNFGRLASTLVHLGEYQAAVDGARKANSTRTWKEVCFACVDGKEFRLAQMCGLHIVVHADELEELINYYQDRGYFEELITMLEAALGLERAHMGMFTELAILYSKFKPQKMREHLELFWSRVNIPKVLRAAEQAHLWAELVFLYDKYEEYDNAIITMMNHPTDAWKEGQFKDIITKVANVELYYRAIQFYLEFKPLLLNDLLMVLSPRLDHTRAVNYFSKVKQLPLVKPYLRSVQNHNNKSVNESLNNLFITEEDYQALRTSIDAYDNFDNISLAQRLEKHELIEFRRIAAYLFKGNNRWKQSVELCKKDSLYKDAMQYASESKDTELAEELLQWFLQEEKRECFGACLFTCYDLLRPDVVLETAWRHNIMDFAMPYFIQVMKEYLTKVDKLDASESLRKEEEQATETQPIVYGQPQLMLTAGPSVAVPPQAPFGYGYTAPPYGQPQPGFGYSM
UniProt Q01581: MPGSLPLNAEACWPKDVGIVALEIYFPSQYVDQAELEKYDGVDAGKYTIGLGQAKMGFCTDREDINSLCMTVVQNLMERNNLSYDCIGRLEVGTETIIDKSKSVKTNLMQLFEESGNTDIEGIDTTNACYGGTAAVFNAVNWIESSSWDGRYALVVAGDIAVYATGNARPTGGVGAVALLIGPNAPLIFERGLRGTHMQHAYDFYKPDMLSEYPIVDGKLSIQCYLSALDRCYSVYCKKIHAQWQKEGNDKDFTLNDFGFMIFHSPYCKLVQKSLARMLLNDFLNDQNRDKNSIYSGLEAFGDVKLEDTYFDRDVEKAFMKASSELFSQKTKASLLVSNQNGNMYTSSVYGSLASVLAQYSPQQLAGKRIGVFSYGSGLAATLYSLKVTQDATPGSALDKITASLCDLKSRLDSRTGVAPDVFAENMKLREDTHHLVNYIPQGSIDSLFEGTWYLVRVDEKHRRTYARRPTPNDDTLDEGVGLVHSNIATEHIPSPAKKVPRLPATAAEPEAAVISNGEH
UniProt Q01813: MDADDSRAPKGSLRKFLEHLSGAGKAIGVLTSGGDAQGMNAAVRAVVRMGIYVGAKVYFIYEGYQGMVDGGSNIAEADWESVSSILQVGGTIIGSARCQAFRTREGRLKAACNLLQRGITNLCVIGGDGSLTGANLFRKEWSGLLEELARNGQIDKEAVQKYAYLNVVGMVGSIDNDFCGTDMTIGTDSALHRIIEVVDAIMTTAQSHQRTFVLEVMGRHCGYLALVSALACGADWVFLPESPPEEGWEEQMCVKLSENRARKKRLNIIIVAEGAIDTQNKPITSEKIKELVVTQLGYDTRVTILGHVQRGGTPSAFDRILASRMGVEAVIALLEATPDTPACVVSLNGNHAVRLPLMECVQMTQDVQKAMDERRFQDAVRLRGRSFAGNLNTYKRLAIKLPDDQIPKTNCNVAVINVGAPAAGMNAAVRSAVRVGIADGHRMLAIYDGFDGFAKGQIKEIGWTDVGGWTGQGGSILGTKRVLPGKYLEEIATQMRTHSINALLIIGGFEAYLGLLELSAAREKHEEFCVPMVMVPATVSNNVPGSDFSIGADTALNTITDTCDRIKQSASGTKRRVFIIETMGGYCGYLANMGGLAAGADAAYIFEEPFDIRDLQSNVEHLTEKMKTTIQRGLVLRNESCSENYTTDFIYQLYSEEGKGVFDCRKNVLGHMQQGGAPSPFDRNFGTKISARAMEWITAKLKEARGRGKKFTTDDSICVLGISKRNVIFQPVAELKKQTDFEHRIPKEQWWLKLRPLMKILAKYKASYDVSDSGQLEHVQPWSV
UniProt Q01469, whole entry, looked up: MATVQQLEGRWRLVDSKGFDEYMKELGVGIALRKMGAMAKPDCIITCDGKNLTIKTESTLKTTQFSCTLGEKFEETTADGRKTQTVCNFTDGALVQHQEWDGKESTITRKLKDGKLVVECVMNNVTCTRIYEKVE
UniProt P62316, whole entry, looked up: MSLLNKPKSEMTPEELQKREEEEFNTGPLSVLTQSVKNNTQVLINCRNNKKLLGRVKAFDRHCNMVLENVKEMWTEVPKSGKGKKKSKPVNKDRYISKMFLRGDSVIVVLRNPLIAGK
UniProt P78417: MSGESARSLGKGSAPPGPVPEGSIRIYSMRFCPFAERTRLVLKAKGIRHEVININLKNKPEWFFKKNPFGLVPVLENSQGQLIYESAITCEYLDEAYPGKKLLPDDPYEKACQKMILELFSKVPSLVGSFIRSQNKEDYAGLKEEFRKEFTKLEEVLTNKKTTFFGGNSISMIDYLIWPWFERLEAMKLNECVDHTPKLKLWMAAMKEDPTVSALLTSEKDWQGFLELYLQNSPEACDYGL
UniProt P63104: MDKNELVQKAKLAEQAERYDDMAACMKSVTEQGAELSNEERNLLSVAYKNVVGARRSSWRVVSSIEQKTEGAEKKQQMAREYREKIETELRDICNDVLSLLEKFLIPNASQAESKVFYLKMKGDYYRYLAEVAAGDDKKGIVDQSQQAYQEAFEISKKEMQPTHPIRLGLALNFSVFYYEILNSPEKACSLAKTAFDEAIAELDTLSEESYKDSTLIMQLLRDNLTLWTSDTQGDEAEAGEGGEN
UniProt Q01082, whole entry, looked up: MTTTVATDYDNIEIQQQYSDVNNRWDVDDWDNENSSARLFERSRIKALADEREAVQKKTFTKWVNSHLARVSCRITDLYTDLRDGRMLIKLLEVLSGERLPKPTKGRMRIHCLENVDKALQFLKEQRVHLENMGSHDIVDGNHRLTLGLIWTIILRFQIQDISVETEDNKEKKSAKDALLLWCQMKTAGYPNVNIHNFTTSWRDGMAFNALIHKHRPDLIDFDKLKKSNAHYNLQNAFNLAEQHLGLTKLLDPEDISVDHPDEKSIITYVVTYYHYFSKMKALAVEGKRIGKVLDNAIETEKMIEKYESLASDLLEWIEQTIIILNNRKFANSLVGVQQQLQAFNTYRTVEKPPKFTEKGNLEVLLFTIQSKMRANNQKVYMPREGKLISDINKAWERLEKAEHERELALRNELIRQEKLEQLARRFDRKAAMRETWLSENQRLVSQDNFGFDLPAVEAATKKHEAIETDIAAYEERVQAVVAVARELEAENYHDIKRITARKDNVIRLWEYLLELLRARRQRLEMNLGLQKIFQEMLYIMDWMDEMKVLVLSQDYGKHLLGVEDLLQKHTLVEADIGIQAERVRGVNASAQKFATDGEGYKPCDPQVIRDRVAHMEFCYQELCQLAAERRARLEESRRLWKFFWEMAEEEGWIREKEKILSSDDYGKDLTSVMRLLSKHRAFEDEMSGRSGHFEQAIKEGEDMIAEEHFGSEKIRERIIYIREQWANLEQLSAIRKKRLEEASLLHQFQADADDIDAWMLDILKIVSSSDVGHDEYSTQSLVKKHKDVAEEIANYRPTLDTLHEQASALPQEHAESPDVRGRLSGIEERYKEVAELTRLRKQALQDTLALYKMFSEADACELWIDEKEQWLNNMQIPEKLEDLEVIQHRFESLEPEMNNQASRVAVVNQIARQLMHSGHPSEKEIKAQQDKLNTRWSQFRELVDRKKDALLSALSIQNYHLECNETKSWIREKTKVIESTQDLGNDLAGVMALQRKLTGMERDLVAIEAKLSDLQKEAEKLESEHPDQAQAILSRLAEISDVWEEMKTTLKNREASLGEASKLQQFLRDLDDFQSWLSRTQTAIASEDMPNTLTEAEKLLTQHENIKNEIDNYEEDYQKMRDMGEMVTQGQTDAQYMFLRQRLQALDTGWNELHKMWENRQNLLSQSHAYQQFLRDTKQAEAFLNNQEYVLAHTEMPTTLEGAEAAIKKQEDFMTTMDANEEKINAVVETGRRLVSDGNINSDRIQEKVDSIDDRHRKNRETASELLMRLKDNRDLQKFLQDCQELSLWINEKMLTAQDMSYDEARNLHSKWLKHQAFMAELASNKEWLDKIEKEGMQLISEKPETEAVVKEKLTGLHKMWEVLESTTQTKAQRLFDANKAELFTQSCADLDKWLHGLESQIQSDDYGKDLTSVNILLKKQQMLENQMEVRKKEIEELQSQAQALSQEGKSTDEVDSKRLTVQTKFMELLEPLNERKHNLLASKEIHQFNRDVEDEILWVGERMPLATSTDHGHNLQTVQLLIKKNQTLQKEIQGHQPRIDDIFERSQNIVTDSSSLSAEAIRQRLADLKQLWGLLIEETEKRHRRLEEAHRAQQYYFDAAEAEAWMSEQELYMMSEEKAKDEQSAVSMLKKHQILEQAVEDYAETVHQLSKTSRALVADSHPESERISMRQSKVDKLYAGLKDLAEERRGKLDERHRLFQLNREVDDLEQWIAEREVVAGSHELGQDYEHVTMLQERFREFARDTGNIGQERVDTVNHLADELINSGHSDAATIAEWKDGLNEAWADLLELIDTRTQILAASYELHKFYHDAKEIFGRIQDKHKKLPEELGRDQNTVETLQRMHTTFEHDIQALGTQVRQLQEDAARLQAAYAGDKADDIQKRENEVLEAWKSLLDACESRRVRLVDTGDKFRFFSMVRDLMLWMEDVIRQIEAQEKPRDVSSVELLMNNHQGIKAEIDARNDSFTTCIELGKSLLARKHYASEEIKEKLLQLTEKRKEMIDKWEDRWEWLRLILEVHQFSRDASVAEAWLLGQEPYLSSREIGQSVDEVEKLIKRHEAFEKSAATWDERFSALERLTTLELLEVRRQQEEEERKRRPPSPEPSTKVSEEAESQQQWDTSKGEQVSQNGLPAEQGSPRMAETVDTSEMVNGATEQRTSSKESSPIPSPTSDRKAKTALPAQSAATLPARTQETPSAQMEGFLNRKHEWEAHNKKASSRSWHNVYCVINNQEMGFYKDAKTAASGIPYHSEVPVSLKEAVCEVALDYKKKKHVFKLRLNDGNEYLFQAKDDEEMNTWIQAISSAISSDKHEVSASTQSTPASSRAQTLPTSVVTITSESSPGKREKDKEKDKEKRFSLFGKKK
UniProt P78337, whole entry: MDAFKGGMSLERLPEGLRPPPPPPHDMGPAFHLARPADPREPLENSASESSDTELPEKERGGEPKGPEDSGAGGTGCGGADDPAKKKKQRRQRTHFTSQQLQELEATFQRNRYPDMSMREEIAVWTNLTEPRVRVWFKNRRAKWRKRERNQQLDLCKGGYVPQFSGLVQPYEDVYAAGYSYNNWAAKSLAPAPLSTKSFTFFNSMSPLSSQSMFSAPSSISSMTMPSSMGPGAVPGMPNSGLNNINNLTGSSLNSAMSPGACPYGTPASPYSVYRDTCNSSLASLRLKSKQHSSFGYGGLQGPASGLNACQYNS

log2 ratio of iodoacetamide-alkyne labeling, inactive:
UniProt P63241_C73 -0.149
CNBP C140 (UniProt P62633) 0.134
CLTC C328 (UniProt Q00610) -0.0284
UniProt Q00341_C878 0.339
EIF4G2 C253 (UniProt P78344) 0.674
UniProt Q02040_C542 0.763
HMGCS1 C224 (UniProt Q01581) -0.00391
PFKP C411 (UniProt Q01813) 0.0898
UniProt P78527_C1455 0.0695
UniProt P62263_C31 -0.0715
FABP5 C120 (UniProt Q01469) -0.108
UniProt P62316_C46 0.0123
GSTO1 C90 (UniProt P78417) -0.84
YWHAZ C25 (UniProt P63104) -0.0172
EEF1A1 C411 (UniProt P68104) 0.726
UniProt P98164_C4047 0.464
EXOSC10 C651 (UniProt Q01780) 0.327
UniProt P68363_C20 0.341
UniProt P62701_C124 -0.122
SPTBN1 C1900 (UniProt Q01082) 0.153
UniProt P78527_C1919 0.0818
CNBP C57 (UniProt P62633) 0.0263
SPTBN1 C112 (UniProt Q01082) 0.622
CNBP C97 (UniProt P62633) -0.0492
PITX1 C77 (UniProt P78337) 0.43
CCT2 C412 (UniProt P78371) 0.212
UniProt P84090_C33 -0.105
UniProt P63244_C182 0.268
UniProt P84103_C6 0.422
RPL7A C199 (UniProt P62424) 0.117
FABP5 C127 (UniProt Q01469) -0.0938
UniProt P62263_C85 0.0387
UniProt P78527_C25 0.3
CLTC C436 (UniProt Q00610) 0.0569
UniProt P78527_C478 0.609
CLTC C918 (UniProt Q00610) 0.486

Eleven successive records from above:
log2 ratio of iodoacetamide-alkyne labeling, inactive:
SPTBN1 C1900 (UniProt Q01082) 0.153
UniProt P78527_C1919 0.0818
CNBP C57 (UniProt P62633) 0.0263
SPTBN1 C112 (UniProt Q01082) 0.622
CNBP C97 (UniProt P62633) -0.0492
PITX1 C77 (UniProt P78337) 0.43
CCT2 C412 (UniProt P78371) 0.212
UniProt P84090_C33 -0.105
UniProt P63244_C182 0.268
UniProt P84103_C6 0.422
RPL7A C199 (UniProt P62424) 0.117

Following part:

log2 ratio of iodoacetamide-alkyne labeling, active:
UniProt Q02040_C549 1.74
